Results of single-concentration screens

Chains of the proteins cited; added tags and fusions are not shown.
UniProt P9WFT3, whole entry: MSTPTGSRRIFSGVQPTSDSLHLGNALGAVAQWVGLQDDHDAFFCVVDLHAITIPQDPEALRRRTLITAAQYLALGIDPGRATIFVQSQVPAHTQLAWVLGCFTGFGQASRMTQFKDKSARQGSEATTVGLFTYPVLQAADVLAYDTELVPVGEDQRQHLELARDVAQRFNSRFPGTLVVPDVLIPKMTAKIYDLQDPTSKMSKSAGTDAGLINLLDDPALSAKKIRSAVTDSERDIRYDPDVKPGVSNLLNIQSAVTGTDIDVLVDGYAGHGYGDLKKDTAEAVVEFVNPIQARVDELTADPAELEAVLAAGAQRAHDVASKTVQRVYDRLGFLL

Source: ChEMBL document CHEMBL3988442, “University of Dundee, Small-Polar-MMV Screening Library” (2021).

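Enzyme assay of tryptophanyl-tRNA synthetase; the read-out is not stated. Target: Tryptophan-tRNA ligase, Mycobacterium tuberculosis (UniProt P9WFT3). Compounds at 10 µM. Higher most likely means stronger inhibition; the record gives no direction and few retests gave an IC50. Of about 65,000 compounds tested this way, about 64 (0.098%) reached 50% or more in at least one test.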

Results are given as percent effect. The record does not define 0% and 100%; most values in the screen are far below 50% and negative numbers occur (in some assays of this library far below -100). The compounds are a random part of those screened.

| SMILES | Percent Effect |
|---|---|
| `COc1ccc(NC(=O)CCC2CCCN(Cc3ncon3)C2)cc1Cl` (stereo not shown) | 1.243% |
| `Cc1nc2ccccc2nc1CN1CCc2c(nc(C3CC3)n2C)C1` | 2.294% |
| `C1=CCN(c2nc(CC3CC3)nc3c2CCN(C2CCOCC2)CC3)C1` | -0.3358% |
| `CC1CN(C)c2ccccc2CN1C(=O)c1ccc[nH]1` (stereo not shown) | 4.49% |
| `CC(=O)N1CCOC(c2cncc(CCC(N)=O)n2)C1` (stereo not shown) | -1.698% |
| `Fc1ccc2[nH]c(C3CCCN3Cc3c[nH]cn3)nc2c1` (stereo not shown) | 3.01% |
| `O=C(NCCNc1ncccn1)C1CC(=O)N(C2CCCC2)C1` (stereo not shown) | -1.412% |
| `Cc1cc(CN2CCN(CC3CC3)[C@@H]3CS(=O)(=O)C[C@@H]32)ccc1F` | -4.608% |
| `O=C(CCc1ccccc1)N1C[C@H]2CCN[C@H]2C1` | -7.849% |
| `COc1cccc(CN2CCN3C(=O)NC[C@H]3C2)n1` | -5.855% |
| `COc1ccc2c(c1)CN(Cc1nc3ccsc3c(=O)[nH]1)CC2` | 1.967% |
| `COCCOC1CCN(C(C(=O)O)c2ccc(F)c(Cl)c2)CC1` (stereo not shown) | 2.976% |
| `CN(C)CCCNCCC(Cc1ccccc1)C1CCOC(C)(C)C1` (stereo not shown) | -6.147% |
| `Cc1nc(CC(=O)NCCN2CCC(c3ccccc3C)C2)cs1` (stereo not shown) | 3.179% |
| `Cc1cccnc1CN1CCOC(Cc2cccc3ccccc23)C1` (stereo not shown) | 0.2141% |
| `CCCn1ncc(-c2ccnc(N[C@@H]3C[C@@H]4CC[C@H]3C4)n2)c1C` | -5.496% |
| `NCc1n[nH]c(=O)n1-c1ccccc1Oc1ccccc1` | 2.469% |
| `CN(C)c1cc(C(=O)N2CCCCC2)ccn1` | 25.13% |
| `O=C(NCCNc1ccc(C(F)(F)F)cn1)c1ccc(Br)cc1` | -8.025% |
| `CN(Cc1cnccn1)C(=O)c1ccc(CSc2nnc[nH]2)o1` | 0% |
| `CCCNC(=O)CNc1ccc2c(c1)N(C(=O)OC(C)(C)C)CCC2` | 4.152% |
| `COc1ccnc(NCc2ccccc2Cn2cccn2)n1` | -1.941% |
| `Cc1csc(N2CCN(CC(=O)Nc3cccnc3)CC2C)n1` (stereo not shown) | -4.583% |
| `CC(=O)Nc1ccc2c(c1)C1(CCOCC1)C(=O)N2c1ccsc1` | -3.456% |
| `CC(C)C(C)(O)CNC(=O)Nc1ccccn1` (stereo not shown) | -6.455% |
| `Cn1ccc2ccnc(CC3CN(C(=O)C4CCC(F)(F)CC4)C3)c21` | 0.2508% |
| `CN1CCOC(C(=O)Nc2nnc(Cc3ccc(F)cc3)[nH]2)C1` (stereo not shown) | -5.393% |
| `COc1ccc(C(=O)NCC(c2cccn2C)N2CCCC2)cc1OC` (stereo not shown) | 5.937% |
| `O=C(Cc1cccs1)N1CCc2nnc(COc3cncnc3)n2CC1` | 21.23% |
| `CN1CCc2[nH]cnc2C12CCN(Cc1ccc3nsnc3c1)CC2` | 0.571% |
| `CC(NC(=O)CCCOc1ccc(F)cc1)c1nnc2n1CCC2` (stereo not shown) | -6.356% |
| `c1cncc(-c2ccc3c(c2)CCC32CCN(Cc3nccs3)CC2)c1` | -0.366% |
| `CCCNC(=O)c1cc2c([nH]c1=O)CC(c1cccs1)CC2=O` (stereo not shown) | -6.231% |
| `Cc1cc(C2CCCN(S(=O)(=O)N(C)C)C2)ccn1` (stereo not shown) | 0.5789% |
| `CCc1nnc2n1CCN(C(C(=O)NC1CC1)c1ccccc1)C2` (stereo not shown) | -3.476% |
| `COc1cccc(NC(=O)CN(C(C)C)C2CC2)c1` | 0.7988% |
| `COc1ccc(NS(=O)(=O)c2cnc(NC(C)=O)s2)cc1` | -1.166% |
| `CN(C)C1CC2(CCN(C(=O)C3(C#N)CC3)CC2)c2ccccc21` (stereo not shown) | -2.044% |
| `NC(=O)c1c(SCCN2CCOCC2)sc2c(O)cc(=O)[nH]c12` | -1.627% |
| `CCc1noc(CN2CCCN(Cc3cccs3)CC2)n1` | 35.1% |
| `Cc1cc(NC(=O)NCC2(O)CCCC2)ccn1` | 3.118% |
| `COCCN(CCOC)Cc1nc2c(cnn2C)c(=O)[nH]1` | 19.17% |
| `CC(C)c1cc(C(=O)N(C)Cc2cccc3ncccc23)n(C)n1` | 2.083% |
| `c1cncc(CN(CCCn2ccnc2)CC2CCOC2)c1` (stereo not shown) | -0.3132% |
| `O=C(c1ccnnc1)N1CCN2C[C@H](Oc3cccnc3)C[C@H]2C1` | -5.779% |
| `CS(=O)(=O)N1CCC2(CC1)c1ccccc1[C@@H](N1CCSCC1)[C@@H]2O` | -3.445% |
| `CCc1noc(CN2CCN(C(=O)OC(C)(C)C)C(C)C2)n1` (stereo not shown) | -4.601% |
| `CC(=O)N[C@H]1CCO[C@@H](c2cccc(NC(=O)Cc3ccccc3)c2)C1` | 25.39% |
| `Cc1ccccc1N1CC2(CCN(Cc3nccn3C)C2)CC1=O` (stereo not shown) | -5.534% |
| `NC(=O)C1=NC2=NS(=O)(=O)c3ccccc3N2N1Cc1ccc(Cl)cc1` | -2.058% |
| `CCC1c2ccsc2CCN1C(=O)NCCc1ccccn1` (stereo not shown) | -6.283% |
| `COCCN(Cc1ccco1)c1ncc(C#N)cc1Cl` | 16.3% |
| `CCn1cc(NC(=O)NCC(c2cccs2)N(C)C)cn1` (stereo not shown) | -1.887% |
| `Cc1ccsc1-c1nccn1CCN1CCCOC1=O` | 2.16% |
| `COc1cc(N2CC3(CCN(S(C)(=O)=O)C3)C2)ncn1` | 1.195% |
| `CC1=N[C@@]2(CC[C@@H]3CN(CC(=O)N(C)C)C[C@@H]32)C(=O)N1CC(C)C` | 6.633% |
| `COc1ccc(CN2CCC3(CC(=O)N(c4cncnc4)C3)C2)cc1` (stereo not shown) | -5.667% |
| `CC(=O)Nc1nc(C(=O)NCc2ccc(OC(C)C)nc2)cs1` | -5.879% |
| `O=C(CCc1cccs1)NCC1CCCN1c1cccnn1` (stereo not shown) | 0.5623% |
| `CSCc1noc(CN2CCC3(CC2)CC(=O)N(CC=C(C)C)C3)n1` | -2.863% |
| `CCCOc1cc(CNC(=O)Nc2cccnc2N2CCCC2)ccn1` | -1.956% |
| `O=C(NC[C@H]1C[C@@H]2CCN1C[C@@H]2CN1CCOCC1)Nc1ccccc1` | -3.539% |
| `Cc1cnn(C2CN(Cc3nc(-c4ccsc4)no3)C2)c1` | -1.461% |
| `Cc1cc(C)n(C2CCCN(C(=O)CN(C)c3cnccn3)C2)n1` (stereo not shown) | -0.9428% |
| `Cc1n[nH]c(C)c1-c1nccnc1CC1CCNC1` (stereo not shown) | -7.92% |
| `CC(NC(=O)c1cc(-c2cccc(Cl)c2)no1)C(=O)N1CCCC1` (stereo not shown) | -4.131% |
| `Cc1nn(C)c(N(C)C)c1CNCCCN(C)S(C)(=O)=O` | -0.8166% |
| `O=C(Nc1cccc(CN2CCOC2=O)c1)N1CCCCCC1` | -2.037% |
| `c1nc2c(c(NC3CCc4ncnn4C3)n1)CCC2` (stereo not shown) | -5.635% |
| `CN(CCO)Cc1nnc(C2CCN(C(=O)c3cc[nH]c3)CC2)n1C` | -2.183% |
| `Cc1ccc(N2CCCc3sc(C(=O)NCCC#N)nc32)nn1` | 2.365% |
| `COCC(=O)N1CCC2(CCc3ccc(F)cc32)CC1` | -0.8721% |
| `COc1ccc(-c2n[nH]c(C)c2CC(=O)NCCN2CCOCC2)cc1` | -6.592% |
| `O=C(c1ccc[nH]1)N1CCCn2cnc(COCC3CC3)c2C1` | -1.44% |
| `CS(=O)(=O)NCc1nnc2n1CCN(CC1CC1)C2` | 2.18% |
| `Cc1ccc(CN(C)CC2(O)CCCN(C)C2)o1` (stereo not shown) | -2.202% |
| `COc1ccc2nc(C3CC3)cc(C(=O)NCC(=O)N(C)C)c2c1` | 3.935% |
| `CCOc1cc([C@H]2N[C@@H](c3nc(C)cs3)Cc3ccsc32)ccc1OC` | -3.166% |
| `CC(C)N(CC(N)=O)C(=O)c1cc(F)ccc1N1CCN(C)CC1` | -2.846% |
| `CC(C)CN1CC(c2nc(-c3cccc(F)c3)c[nH]2)CC1=O` (stereo not shown) | 0.09671% |
| `CN(C)Cc1nn(C)c2c1CCN(C(=O)c1cccnc1)C2` | -1.824% |
| `CCOc1cc(CN(C)CC(=O)O)ccc1OC(F)F` | -3.551% |
| `CNC(=O)C1CCC2(CCNCC2)C1` (stereo not shown) | -5.74% |
| `COc1cc(N2CC[C@@H](OC)[C@@H]2Cc2ccccc2)ncn1` | 1.106% |
| `Cc1cc(CN2CC[C@H]3[C@H]2CCN3S(C)(=O)=O)oc1C` | -3.153% |
| `CC(C)(C)c1ccc(C2(C(=O)NCCCS(C)(=O)=O)CC2)cc1` | -0.08285% |
| `N#Cc1cccnc1NCCNC(=O)N1CCCC(N2CCCC2)C1` (stereo not shown) | -1.323% |
| `CCOC(C)c1nc(CN2CCC(NC(C)C)CC2)cs1` (stereo not shown) | -2.584% |
| `Cc1cc(N2CCC(Cc3ccccc3)CC2)ncn1` | -1.537% |
| `O=C(O)[C@]12CCCN(Cc3ccccn3)[C@@H]1CCN(c1cnccn1)C2` | -3.8% |
| `Cn1cc(CN2CCC(F)(F)C3(CCN(c4ncccn4)C3)C2)cn1` (stereo not shown) | 1.357% |

11 of the entries, repeated:

{"smiles": "CCc1nnc2n1CCN(C(C(=O)NC1CC1)c1ccccc1)C2", "stereo": "stereo not shown", "Percent Effect": -3.476}
{"smiles": "Cc1cc(CN2CCN(CC3CC3)[C@@H]3CS(=O)(=O)C[C@@H]32)ccc1F", "Percent Effect": -4.608}
{"smiles": "CN1CCOC(C(=O)Nc2nnc(Cc3ccc(F)cc3)[nH]2)C1", "stereo": "stereo not shown", "Percent Effect": -5.393}
{"smiles": "COc1ccc(NC(=O)CCC2CCCN(Cc3ncon3)C2)cc1Cl", "stereo": "stereo not shown", "Percent Effect": 1.243}
{"smiles": "CC(=O)N1CCOC(c2cncc(CCC(N)=O)n2)C1", "stereo": "stereo not shown", "Percent Effect": -1.698}
{"smiles": "c1cncc(-c2ccc3c(c2)CCC32CCN(Cc3nccs3)CC2)c1", "Percent Effect": -0.366}
{"smiles": "COc1ccc2c(c1)CN(Cc1nc3ccsc3c(=O)[nH]1)CC2", "Percent Effect": 1.967}
{"smiles": "Cc1ccsc1-c1nccn1CCN1CCCOC1=O", "Percent Effect": 2.16}
{"smiles": "CC(C)c1cc(C(=O)N(C)Cc2cccc3ncccc23)n(C)n1", "Percent Effect": 2.083}
{"smiles": "CC(C)C(C)(O)CNC(=O)Nc1ccccn1", "stereo": "stereo not shown", "Percent Effect": -6.455}
{"smiles": "NCc1n[nH]c(=O)n1-c1ccccc1Oc1ccccc1", "Percent Effect": 2.469}